Record: PubChem BioAssay AID1159596 (NIAID, 2016)

- Test: 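Genes whose silencing alters the TNF reporter response of macrophage-like cells to peptidoglycan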 (primary screen)
- Cells: human THP1 B5 monocytic reporter cells made macrophage-like with PMA
- Knock-down reagent: single siRNA against human genes
- Time to read-out: assayed 48 to 72 hours after siRNA transfection; peptidoglycan stimulation lasted 4 hours
- Treatment: Staphylococcus aureus peptidoglycan for 4 hours; dose not given
- Measured: 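Mean over replicate screens of a robust z per siRNA from the dual luciferase TNF promoter reporter after 4 h peptidoglycan, median/MAD normalised, relative to negative controls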
- Direction: TNF reporter z-score: higher = stronger TNF promoter reporter response to peptidoglycan
- Active means: In these data the active calls have TNF reporter z-score, replicate mean at about -1.5 or lower, or at about 1.5 or higher
- Calls: active = reporter shifted beyond cut (either direction); inactive = reporter near control level
Here is an unselected part of 756 reagents tested. Over the whole deposit, 143 (19%) are marked active. 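Active means the reporter moved past about ±1.5 in either direction; scores are per single siRNA, not per gene; peptidoglycan dose not given.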 Reagents against one gene are numbered here. Not stated in the record: the amount of reagent.

For CCL3 #1, what does the deposit list?
TNF reporter z-score, replicate mean: -2.05; Outcome: active

With CCL3 #2, what does the deposit list?
TNF reporter z-score, replicate mean: 0.164; Outcome: inactive

How did the screen score CCL3 #3?
TNF reporter z-score, replicate mean: -0.0473; Outcome: inactive

How did the screen score CCL3 #4?
TNF reporter z-score, replicate mean: 0.042; Outcome: inactive

What did the screen give for CCL3 #5?
TNF reporter z-score, replicate mean: 0.188; Outcome: inactive

How did the screen score CCL3 #6?
TNF reporter z-score, replicate mean: -0.676; Outcome: inactive

For EGR1 #1, what does the deposit list?
TNF reporter z-score, replicate mean: -2.24; Outcome: active

How did the screen score EGR1 #2?
TNF reporter z-score, replicate mean: -1.96; Outcome: active

For EGR1 #3, what was measured?
TNF reporter z-score, replicate mean: -2.08; Outcome: active

For EGR1 #4, what does the deposit list?
TNF reporter z-score, replicate mean: -0.735; Outcome: inactive

With EGR1 #5, what does the deposit list?
TNF reporter z-score, replicate mean: -1.13; Outcome: inactive

With EGR1 #6, what was measured?
TNF reporter z-score, replicate mean: -1.38; Outcome: inactive

Active calls, among the entries above:
CCL3 #1 | TNF reporter z-score, replicate mean: -2.05; Outcome: active
EGR1 #1 | TNF reporter z-score, replicate mean: -2.24; Outcome: active
EGR1 #2 | TNF reporter z-score, replicate mean: -1.96; Outcome: active
EGR1 #3 | TNF reporter z-score, replicate mean: -2.08; Outcome: active

The listing continues.
With MAPK14 #1, how do the results read?
TNF reporter z-score, replicate mean: -1.32; Outcome: inactive

How did the screen score MAPK14 #2?
TNF reporter z-score, replicate mean: -1.9; Outcome: active

How did the screen score MAPK14 #3?
TNF reporter z-score, replicate mean: -0.906; Outcome: inactive

What is on record for MAPK14 #4?
TNF reporter z-score, replicate mean: -2.24; Outcome: active

With MAPK14 #5, what was measured?
TNF reporter z-score, replicate mean: -1.16; Outcome: inactive

What did the screen give for MAPK14 #6?
TNF reporter z-score, replicate mean: -1.96; Outcome: active

With TRAF6 #1, how do the results read?
TNF reporter z-score, replicate mean: -3.81; Outcome: active

For TRAF6 #2, how do the results read?
TNF reporter z-score, replicate mean: -3.55; Outcome: active

Which result is listed for TRAF6 #3?
TNF reporter z-score, replicate mean: -4.74; Outcome: active

What did the screen give for TRAF6 #4?
TNF reporter z-score, replicate mean: -2.15; Outcome: active

With TRAF6 #5, how do the results read?
TNF reporter z-score, replicate mean: -3.04; Outcome: active

What did the screen give for TRAF6 #6?
TNF reporter z-score, replicate mean: -2.28; Outcome: active
